Results published in PubChem BioAssay AID540256 (National Center for Advancing Translational Sciences (NCATS), 2011).
Values joined by “and” are separate entries in the source; they are usually repeats but may differ in a detail not shown here. Equal values may be shown once. The campaign covered roughly 300,000 compounds. About 3,700 (1.2%) were called active. The shares of active, inactive and inconclusive entries below differ from those in the screen. The call rests on the fitted dose curve; tested in HEK293 cells. Where the call is inconclusive, the potency comes from a doubtful curve fit.

Assay: qHTS for Inhibitors of binding or entry into cells for Lassa Virus; further: nearly all actives have a fitted effect of over 50% in size
Conditions: Lassa virus pseudotype entry inhibition, cell reporter; series mostly up to 37.9 µM
Potency means the concentration at half of the fitted maximal effect.

| SMILES | Potency |
| --- | --- |
| COc1cccc(NC(=O)Nc2cc(-c3cn4cccnc4n3)ccc2C)c1 | inconclusive: 3.16 µM [inhibitor, partial curve, poor fit] |
| Cc1ccc2c(c1)C(SCC(=O)NCCc1ccccc1)CC1(CCCC1)O2 (stereo not given) | inactive |
| Nc1nc2c(Cl)ccc(Cl)c2s1 | inactive |
| COc1ccccc1CNS(=O)(=O)c1ccc(S(=O)(=O)NC2CC2)cc1 | inactive |
| Cc1cccnc1CN1CCN(C(=O)c2cc(COc3ccc4ncccc4c3)on2)CC1 | inconclusive: 2.51 µM [inhibitor, partial curve, poor fit] |
| Cc1nn(CCCC(=O)Nc2ccccc2C(F)(F)F)c(=O)c2c1sc1ccccc12 | inactive |
| CCCC(=O)Nc1ccc(C(=O)Nc2ccc([N+](=O)[O-])cc2OC)cc1 | inconclusive: 6.31 µM [inhibitor, single point] |
| Cc1ccc(-c2c[n+](Cc3ccc(Cl)cc3)c3n2CCC3)cc1 | inconclusive: 3.55 µM [inhibitor, single point] |
| Cc1cccnc1NC(=O)CSc1nnc(CNC(=O)c2cccc([N+](=O)[O-])c2)n1C | inactive |
| CCCCn1c(C23CC4CC(CC(C4)C2)C3)n[nH]c1=S | inconclusive: 15.8 µM [inhibitor, partial curve, poor fit] |
| Cc1ccccc1C1CCCN(Cc2nc(CC3CC3)no2)C1 (stereo not given) | inactive |
| COc1ccc(CNC(=O)c2cccnc2Sc2ccc(Cl)cc2)cc1 | inconclusive: 0.326 µM [inhibitor, full curve, poor fit] |
| Cc1nn2c(NCCCN(C)C)c3c(nc2c1-c1ccccc1)CCCC3 | inconclusive: 35.5 µM [inhibitor, single point] |
| Cc1ccc(-c2cn(S(=O)(=O)c3cccc4nsnc34)nc2N)cc1 | inactive |
| Cc1ccc(-c2nc3ccccc3n2C)o1 | inconclusive: 0.0366 µM [activator, full curve, poor fit] |
| CN(C)CC/C=C1\c2ccccc2Sc2cc(F)c(Cl)cc21 | inconclusive: 35.5 µM [inhibitor, single point] |
| CN(C)S(=O)(=O)c1ccc2nc(NC(=O)c3cccnc3)sc2c1 | inconclusive: 6.51 µM [inhibitor, partial curve, poor fit] |
| COc1ccc(NC(=O)CN(C)C(=O)c2cccc(S(=O)(=O)N3CC4(C)CC3CC(C)(C)C4)c2)cc1 (stereo not given) | inconclusive: 12.6 µM [inhibitor, partial curve, poor fit] |
| COc1cccc(C(=O)O/N=C(\N)c2ccc([N+](=O)[O-])cc2)c1OC | inconclusive: 6.31 µM [activator, single point] |
| CCCCCCCn1c(=O)c(C(=O)Nc2cnccn2)c(O)c2ccccc21 | inconclusive: 4.47 µM [inhibitor, full curve, poor fit] |
| O=C(Nc1ccc(F)cc1)C(Cc1ccccc1)n1cccc1 (stereo not given) | inconclusive: 35.5 µM [inhibitor, single point] |
| CCN(CC)C(=O)Cn1cc(SCC(=O)Nc2cccc(C)c2)c2ccccc21 | inconclusive: 11.2 µM [activator, partial curve] |
| CCCCN1Cc2c(nc3cc(-c4ccco4)[nH]n3c2=O)C1=O | inactive |
| CCCc1cc(NCc2ccccn2)n2c(nc3ccccc32)c1C#N | inactive |

| SMILES | Potency |
| --- | --- |
| C[n+]1ccn(CC(=O)c2cccs2)c1 | inconclusive: 1.26 µM [inhibitor, single point] |
| COC(=O)c1c(C)nc2ccccc2c1C(=O)O | inactive |
| O=C(Nc1ccccn1)c1ccc2ccccc2n1 | inconclusive: 0.562 µM [activator, partial curve, poor fit] |
| COC(=O)C(C)Sc1ncnc2c1nnn2-c1ccc(F)cc1 (stereo not given) | inactive |
| CC(C)Oc1ccc(CCC(=O)NNC(=O)c2ccccc2C(=O)O)cc1 | inconclusive: 0.562 µM [inhibitor, full curve, poor fit] |
| CC(C)(C)NC(=O)CCc1ncc(C(F)(F)F)cc1Cl | inconclusive: 35.5 µM [activator, single point] |
| COc1ccccc1CNC(=O)CN1C(=O)CSc2ccc(S(=O)(=O)N3CCCC3)cc21 | inactive |
| O=C(Nc1ccccc1C(=O)Nc1nnc(C(F)(F)F)s1)c1ccccc1 | active: 10 µM |
| c1ccc2c(c1)CCC[C@H]2Nc1nc2ccccc2[nH]1 | inconclusive: 0.206 µM [activator, partial curve, poor fit] |
| CCOC(=O)C1=C(CC)NC2=C(C(=O)CCC2)C1c1ccc(OC)c(OC)c1 (stereo not given) | inactive |
| Cc1ncc(CN2CCC(N3CCC(C(=O)N4CCCC4)CC3)CC2)s1 | inactive |
| COc1ccc(OCCNC(=S)Nc2cccc3ccccc23)cc1 | inactive |
| CNS(=O)(=O)c1ccc(OC)c(-c2nnc3c4ccccc4c(C)nn23)c1 | inactive |
| N#Cc1ccc(S(=O)(=O)NC2CCCCNC2=O)cc1 (stereo not given) | inactive |
| O=C(Nc1nc(-c2ccccn2)cs1)Nc1ccc(F)cc1F | inconclusive: 11.2 µM [inhibitor, partial curve, poor fit] |
| O=C(Nc1cc(Cl)ccn1)C1CCN(S(=O)(=O)c2cccs2)CC1 | inconclusive: 16.4 µM [inhibitor, single point] |
| COc1ccc(CCCNC(=O)C2CCC(=O)N(CCc3cccc(F)c3)C2)cc1 (stereo not given) | inconclusive: 6.31 µM [inhibitor, single point] |
| Cc1cccc(C(=O)N[C@H](C(=O)Nc2ccc(S(=O)(=O)NC3=NCCCCC3)cc2)C(C)C)c1 | inconclusive: 35.5 µM [inhibitor, single point] |
| CC(=O)C1=C(C)OC(N)=C(C#N)C1c1ccco1 (stereo not given) | inactive |
| Cc1ccc(C2C=C(c3ccc4c(c3)OCO4)Nc3ncnn32)cc1 (stereo not given) | inactive |
| CCCCn1c(/C=N/Nc2nc3ccccc3[nH]2)nc2ccccc21 | inconclusive: 35.5 µM [inhibitor, single point] |
| Cn1c(=O)c2c(nc(SCC(=O)NCc3ccc4c(c3)OCO4)n2Cc2ccc(Cl)cc2)n(C)c1=O | inactive |
| Cc1cccc(C)c1-n1ncc(C(=O)Nc2ccc3c(c2)OCCO3)c1C1CCN(C(=O)OC(C)(C)C)CC1 | inconclusive: 35.5 µM [activator, single point] |
| CC(C)c1ccc(/C=N/n2c(COc3ccccc3)n[nH]c2=S)cc1 | active: 1.58 µM |

Reformatted: 3 of the compounds above.
SMILES,Potency
COC(=O)C(C)Sc1ncnc2c1nnn2-c1ccc(F)cc1 (stereo not given),inactive
CC(C)Oc1ccc(CCC(=O)NNC(=O)c2ccccc2C(=O)O)cc1,"inconclusive: 0.562 µM [inhibitor, full curve, poor fit]"
Cn1c(=O)c2c(nc(SCC(=O)NCc3ccc4c(c3)OCO4)n2Cc2ccc(Cl)cc2)n(C)c1=O,inactive

Exported tab-delimited: part of the list above
SMILES	Potency
C[n+]1ccn(CC(=O)c2cccs2)c1	inconclusive: 1.26 µM [inhibitor, single point]
COC(=O)c1c(C)nc2ccccc2c1C(=O)O	inactive
O=C(Nc1ccccn1)c1ccc2ccccc2n1	inconclusive: 0.562 µM [activator, partial curve, poor fit]

Following part.

| SMILES | Potency |
| --- | --- |
| CC1CC(C)CN(CCCSc2ccccc2)C1 (stereo not given) | inconclusive: 7.31 µM [inhibitor, partial curve, poor fit] |
| Cc1noc2ncnc(Oc3ccc(Cl)cc3Cl)c12 | inconclusive: 10 µM [inhibitor, partial curve, poor fit] |
| CCN1CCN(c2ncc(C(=O)Nc3c(F)cc(F)cc3Br)c3ccccc23)CC1 | inconclusive: 17.8 µM [inhibitor, single point] |
| O=C(c1cc(-c2ccc(Cl)cc2Cl)on1)N1CCCCCC1 | inconclusive: 11.2 µM [inhibitor, partial curve, poor fit] |
| O=C(NCc1ccccc1)/C(=N\O)c1ccccc1 | inconclusive: 4.61 µM [activator, single point] |
| CSc1ncccc1C(=O)N1CCN(S(=O)(=O)c2ccccc2)CC1 | inconclusive: 6.31 µM [inhibitor, single point] |
| COc1ccc(NC(=O)c2cnn(-c3ccc(C)cc3)c2-n2cccc2)cc1Cl | inactive |
| Fc1ccccc1NC(=S)Nc1cccnc1 | inconclusive: 7.94 µM [activator, single point] |
| CC(=O)Nc1cc(C(=O)N(C)Cc2ccco2)ccc1Sc1ccc(C)cc1 | inconclusive: 14.1 µM [inhibitor, partial curve, poor fit] |
| CC(CN1CCN(CC(C)C(=O)c2ccccc2)CC1)C(=O)c1ccccc1 (stereo not given) | inconclusive: 0.708 µM [inhibitor, single point] |
| CCC(C)NC(=O)CCC(=O)Nc1ccc2nc(N3CCOCC3)cc(C)c2c1 (stereo not given) | inconclusive: 2.82 µM [activator, partial curve] |
| N#Cc1c(NC(=O)CSc2nc(N)cc(=O)[nH]2)sc2c1CCCC2 | inconclusive: 2.24 µM [inhibitor, full curve, poor fit] |
| CC(Cc1cccs1)NC(=O)Nc1ccc(Cl)c(Cl)c1 (stereo not given) | inconclusive: 23.1 µM [activator, single point] |
| O=C(CCN1C(=O)c2ccccc2C1=O)NC1=NCCS1 | inactive |
| O=C(c1ccco1)N1CCN(c2nc3ccccc3n3nnnc23)CC1 | inactive |
| Cc1ccc2c(c1)nnn2C1CCN(S(=O)(=O)c2ccc(C(=O)N(C)C3CCCCC3)cc2)CC1 | inconclusive: 16.4 µM [inhibitor, single point] |
| COc1ccc(-c2cc(C)no2)cc1S(=O)(=O)NCc1ccc(OC(C)C)cc1 | inactive |
| COc1cc(NC(=O)c2cc(-c3ccc4c(c3)OCO4)on2)cc(OC)c1OC | inconclusive: 10 µM [inhibitor, partial curve, poor fit] and inconclusive: 7.08 µM [inhibitor, partial curve, poor fit] |
| Cc1ccc(-c2nnc(CSc3nc(C)nc4sc(C)c(C)c34)o2)cc1 | inactive |
| CCN(Cc1ccccc1)Cc1cc(OC)cc(OC)c1 | inconclusive: 32.6 µM [inhibitor, single point] |
| O=C(Cn1cc(SCc2ccc(C(F)(F)F)cc2)c2ccccc21)N1CCCCC1 | inconclusive: 25.1 µM [inhibitor, partial curve, poor fit] |
| Cc1cccc(Nc2nnc(-n3nc(C)cc3C)c3ccccc23)c1 | inconclusive: 11.2 µM [activator, partial curve, poor fit] |
